No constants are given. Whether binding was seen depends on the method and setting. Binding seen in cells or lysates may run through a third protein. Here binding means that the protein was enriched with, or labelled near, the bait; the list need not be complete. Sequences can lack the tags named with a protein.
Target: T1, 3xFlag-ZNF598 (Zinc Finger Protein 598) (human) (UniProt Q86UK7)
T1 sequence: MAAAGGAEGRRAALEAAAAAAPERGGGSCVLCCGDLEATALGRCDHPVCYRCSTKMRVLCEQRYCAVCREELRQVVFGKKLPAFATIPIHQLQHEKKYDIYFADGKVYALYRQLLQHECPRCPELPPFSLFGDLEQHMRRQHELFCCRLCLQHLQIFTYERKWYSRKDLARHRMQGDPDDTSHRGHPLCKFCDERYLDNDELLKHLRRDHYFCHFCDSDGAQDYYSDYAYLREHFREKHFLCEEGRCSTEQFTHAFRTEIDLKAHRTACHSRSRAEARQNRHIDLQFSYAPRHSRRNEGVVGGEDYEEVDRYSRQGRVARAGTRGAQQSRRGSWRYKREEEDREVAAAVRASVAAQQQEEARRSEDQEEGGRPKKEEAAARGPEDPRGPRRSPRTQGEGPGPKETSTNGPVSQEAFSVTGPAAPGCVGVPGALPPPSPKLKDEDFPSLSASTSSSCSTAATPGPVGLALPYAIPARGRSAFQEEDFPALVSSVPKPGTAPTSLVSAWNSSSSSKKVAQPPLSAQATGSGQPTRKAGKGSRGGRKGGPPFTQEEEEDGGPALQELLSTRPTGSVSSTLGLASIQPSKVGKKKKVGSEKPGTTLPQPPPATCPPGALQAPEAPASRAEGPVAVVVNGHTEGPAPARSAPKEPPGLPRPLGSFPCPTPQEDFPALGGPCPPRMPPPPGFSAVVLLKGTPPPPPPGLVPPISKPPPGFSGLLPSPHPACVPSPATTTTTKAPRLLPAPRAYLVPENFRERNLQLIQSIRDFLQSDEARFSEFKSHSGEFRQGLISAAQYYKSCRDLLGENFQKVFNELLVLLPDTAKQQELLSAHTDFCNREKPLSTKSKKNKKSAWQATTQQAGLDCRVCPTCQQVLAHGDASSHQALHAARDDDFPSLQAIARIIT
Assay: affinity purification with mass spectrometry; anti-FLAG-M2 magnetic beads on NP40 lysate of cells expressing 3xFlag-ZNF598 or 3xFlag alone; washes with 300 mM and 500 mM KCl; elution with Flag peptide; label-free LC-MS/MS; three biological replicates

Protein sequences, listed by entry. Tags and fused reporters are not part of them. Lines headed by an entry give the natural chain unless they say otherwise; changes in a name come on top. Chains listed by the source or under a name are the forms on record and can include a tag or linker.
UBE2D3 (E2 ubiquitin ligase) (P61077-2, form named): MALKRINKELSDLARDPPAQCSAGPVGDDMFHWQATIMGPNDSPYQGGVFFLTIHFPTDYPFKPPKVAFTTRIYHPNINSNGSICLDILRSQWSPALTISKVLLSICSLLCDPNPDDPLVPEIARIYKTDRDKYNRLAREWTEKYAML

Substance: UBE2D3 (E2 ubiquitin ligase) (from UniProt P61077-2 1-148) (enzyme)
- binding: binds

From publication PMC5504347
